# Experimental data: PubChem BioAssay AID686943 (Drosophila RNAi Screening Center, 2013)
# Purpose: 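Knockdowns that increase or decrease active ERK after insulin receptor stimulation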 (primary screen)
# Cell system: Drosophila S2R+ haemocyte-like cells expressing YFP-tagged ERK (Rolled)
# Reagent: long dsRNA against Drosophila genes
# Conditions: insulin stimulation versus unstimulated cells; dose and duration not given
# Measurement: 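Per-plate z-scores of phospho-ERK immunostaining normalised to YFP-tagged ERK, measured with and without insulin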
# Direction: replicate 1, z-score of dpERK with insulin and replicate 2, z-score of dpERK with insulin: higher = more active ERK per ERK-YFP after insulin; replicate 1, z-score of dpERK under basal conditions: higher = more basal active ERK per ERK-YFP; replicate 1, z-score of ERK-YFP with insulin: higher = more YFP-tagged ERK signal
# In all, the deposit lists about 23,000 reagents; this is a random part of those with a known target gene and a result. 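Extra replicates exist only for a retested subset of genes; insulin dose and duration not given; both raised and lowered dpERK matter.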 Names joined by + are all predicted targets of the reagent. The record does not give: the amount of reagent, the time to read-out.
target,amplicon,"replicate 1, z-score of dpERK with insulin","replicate 2, z-score of dpERK with insulin","replicate 1, z-score of dpERK under basal conditions","replicate 1, z-score of ERK-YFP with insulin"
p38b,DRSC03586,1.08,0.68,1.2,0.18
CG30350,DRSC07690,0.24,0.23,-0.75,-0.19
CG13065,DRSC09948,0.33,-0.22,0.09,-0.86
Dfd,DRSC12593,0.99,1.49,-0.17,0.13
QIL1,DRSC10888,-1.08,-1.1,-0.57,-1.21
CG13793,DRSC02297,0.14,0.63,-1.7,0.78
RacGAP84C,DRSC12630,0.76,0.01,-0.71,-0.09
svp,DRSC12899,-0.7,-0.79,0.51,0.51
svp,DRSC15311,-5.1,-2.85,-3.37,-2.99
svp,DRSC17075,1.51,1.37,1.55,-0.16
CG7453,DRSC20046,0.08,0.61,-0.24,1.04
CG12948,DRSC14576,-0.57,-0.41,-0.44,-0.31
hlk,DRSC05021,1,0.54,0.65,-1.34
hlk,DRSC05022,0.04,-1.98,-0.11,0.31
mib1,DRSC10550,0.78,2.27,0.02,0.11
CG6567,DRSC16066,-0.77,0.06,0.51,0.01
mIF3,DRSC06290,0.15,-0.16,0.48,-0.02
CG14598,DRSC12541,1.04,2.03,2.71,-2.73
defl,DRSC10300,-1.46,-3.8,1.3,0.77
Coq3,DRSC03168,0.05,-0.3,-0.09,-0.42
spartin,DRSC12187,1.05,-0.09,-1.43,-0.21
ara,DRSC11322,-2.33,-2.87,-1.25,-0.43
CG10550,DRSC14251,0.51,0.19,0.43,-0.69
mthl9,DRSC08506,-0.15,-0.09,0.82,0.07
CG33116,DRSC02045,-1,-0.75,-2.68,0.42
Pms2,DRSC07511,-0.66,-0.26,0.14,-0.18
CG6330,DRSC16022,-0.79,-0.56,0.19,0.71
CG6788,DRSC20007,0.46,-0.12,-0.27,-0.3
CG3355,DRSC00598,-0.6,-0.09,-0.09,-0.1
CtsL3,DRSC12171,-0.04,0.01,0.45,0.83
Mur89F,DRSC15544,0.46,0.41,1.69,-1.84

The list goes on (9 carried over from the part before).
target,amplicon,"replicate 1, z-score of dpERK with insulin","replicate 2, z-score of dpERK with insulin","replicate 1, z-score of dpERK under basal conditions","replicate 1, z-score of ERK-YFP with insulin"
CG10550,DRSC14251,0.51,0.19,0.43,-0.69
mthl9,DRSC08506,-0.15,-0.09,0.82,0.07
CG33116,DRSC02045,-1,-0.75,-2.68,0.42
Pms2,DRSC07511,-0.66,-0.26,0.14,-0.18
CG6330,DRSC16022,-0.79,-0.56,0.19,0.71
CG6788,DRSC20007,0.46,-0.12,-0.27,-0.3
CG3355,DRSC00598,-0.6,-0.09,-0.09,-0.1
CtsL3,DRSC12171,-0.04,0.01,0.45,0.83
Mur89F,DRSC15544,0.46,0.41,1.69,-1.84
TwdlB,DRSC16050,0.52,-1.45,1.28,1.21
lncRNA:CR9162,DRSC03151,0.17,0.39,0.15,1.31
Spn43Ad,DRSC06770,0.39,-0.38,-0.16,0.39
CG4186,DRSC11753,-0.08,0.27,1.04,0.41
Grl36a,DRSC21748,0.04,-0.22,0.18,1.76
CG6678,DRSC16092,-1.04,-0.7,-0.62,-0.21
CG4269,DRSC04457,0.03,0.45,1.24,-0.04
Ntan1,DRSC07546,0.44,1.49,0.35,0.76
PolE4,DRSC04105,0.24,-0.31,-0.97,0.85
Cda5,DRSC00003,-0.09,0.25,-0.25,0.37
Cda5,DRSC00529,0.07,-0.35,-0.68,-0.1
Cda5,DRSC00532,-0.2,-0.71,-0.81,0.83
Cda5,DRSC21330,-4.28,0.97,2.37,-0.92
CG16749,DRSC15146,0.29,0.11,-0.48,0.66
Osi16,DRSC12135,0.82,-0.62,0.05,0.08
Osi16,DRSC21323,0.71,0.33,-1.02,-0.19
tbc,DRSC20540,-2.87,-0.03,-0.71,3.11
CG10345,DRSC14138,0.63,0.38,-0.64,0.62
CG9380,DRSC04549,0.75,-0.24,-0.77,0.05
exex,DRSC10972,0.68,0.97,0.36,-0.05
CG8850,DRSC07287,-0.14,-0.91,-0.04,-0.19
CG3335,DRSC10358,-0.38,-0.38,-1.68,-0.53
grk,DRSC03540,-0.17,0.91,-0.21,0.44
CG31689,DRSC00734,-0.56,0.94,-0.27,1.13
CG13334,DRSC06369,1.05,0.21,-0.13,0.03
Tmem63,DRSC06063,0.2,0.12,-0.23,0.28
Shawn + Tyler,DRSC19564,0.47,-0.18,-0.22,-0.27
Shawn + Tyler,DRSC19565,-0.91,0.67,1.56,0.66
CR43999 (retired record),DRSC14605,0.63,1.58,0.18,0.58
Taf9,DRSC20326,2.14,1.54,-2.8,0.23
Ugt36F1,DRSC02601,-0.44,0.04,0.59,0.66
CG34454,DRSC07864,-0.08,-0.21,0.85,0.68
D2hgdh,DRSC18577,0.64,-0.12,-0.17,-0.2
beat-VII,DRSC13780,1.39,0.52,-0.22,-1.21
beat-VII,DRSC14743,0.64,0.11,0.82,0.11
beat-VII,DRSC14744,0.14,-1,0.04,0.44
beat-VII,DRSC22825,-0.1,-0.27,-0.01,1.02
Cbs,DRSC20553,0.36,-1.01,0.03,0.17
Fim,DRSC20243,-0.88,-2.5,-0.79,0.63
CG12499,DRSC14521,-2.11,-0.38,-0.38,1.81
RpL11,DRSC07537,-3.71,-0.78,-3.75,-2.38
CG42850 (retired record),DRSC00872,0.52,-0.15,-0.81,-0.13
